For the test, the target named is HSC70 (human (endogenous in MCF7)) (UniProt P11142). Briefly: co-IP; MCF7 lysate in IP lysis buffer; 800 µg proteins with 8 µg antibody against HSC70 overnight at 4 °C, protein A+G agarose 4 h at 4 °C, washed with cold PBS; anti-UBC12 immunoblot.

By UniProt entry, the sequences of proteins in these tests, tags left out.
UniProt P11142: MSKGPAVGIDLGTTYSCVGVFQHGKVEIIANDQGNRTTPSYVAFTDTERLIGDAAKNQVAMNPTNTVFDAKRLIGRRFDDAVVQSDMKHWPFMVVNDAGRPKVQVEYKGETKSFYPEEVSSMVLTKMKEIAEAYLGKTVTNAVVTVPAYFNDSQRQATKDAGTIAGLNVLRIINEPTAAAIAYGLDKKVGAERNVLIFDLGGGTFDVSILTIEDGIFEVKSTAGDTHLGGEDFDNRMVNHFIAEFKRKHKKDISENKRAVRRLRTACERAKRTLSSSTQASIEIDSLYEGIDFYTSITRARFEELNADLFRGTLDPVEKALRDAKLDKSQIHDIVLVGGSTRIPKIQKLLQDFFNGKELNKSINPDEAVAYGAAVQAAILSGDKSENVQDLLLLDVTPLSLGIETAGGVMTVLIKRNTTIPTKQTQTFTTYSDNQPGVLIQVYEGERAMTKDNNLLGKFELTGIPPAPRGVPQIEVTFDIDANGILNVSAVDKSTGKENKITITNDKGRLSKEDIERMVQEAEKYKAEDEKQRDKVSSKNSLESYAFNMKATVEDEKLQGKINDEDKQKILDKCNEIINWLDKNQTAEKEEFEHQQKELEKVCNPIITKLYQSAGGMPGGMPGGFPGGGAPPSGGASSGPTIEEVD
UniProt P61081: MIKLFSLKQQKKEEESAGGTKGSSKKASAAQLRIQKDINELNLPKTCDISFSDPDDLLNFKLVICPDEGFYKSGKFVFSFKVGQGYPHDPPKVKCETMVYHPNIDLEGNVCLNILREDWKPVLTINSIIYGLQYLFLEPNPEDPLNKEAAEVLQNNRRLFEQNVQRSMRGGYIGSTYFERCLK

No constants are given. Whether binding was seen depends on the method and setting. In cells and extracts the contact can be indirect. Some results given as binding are weak or reduced against the parent protein; the word gives no strength.

Take “UBC12 (from UniProt P61081 1-183) (enzyme)”: the binding entry is recorded as “binds”.

These data come from article PMC10916551, “NNMT/1‐MNA Promote Cell‐Cycle Progression of Breast Cancer by Targeting UBC12/Cullin‐1‐Mediated Degradation of P27 Proteins” (Advanced Science, 2023).
